According to paper PMC9731409:
No constants are given. Whether binding was seen depends on the method and setting. Binding seen in cells or lysates may run through a third protein. For some of these results: A result given as binding can be weak or reduced; the word gives no strength. Sequences can lack the tags named with a protein.

How the values were obtained:
[1] = target: F-FLAG (C-terminally FLAG-tagged mumps virus fusion protein) (mumps virus); assay: co-IP; 293T cells co-expressing FLAG-tagged F or HN and an HA-tagged host protein; immunoprecipitated with anti-FLAG or anti-HA antibody; lysis in 20 mM Tris-HCl pH 7.5, 135 mM NaCl, 1% Triton X-100; protein G beads, immunoblotting (Fig 4A, S3 Fig)
[2] = target: FLAG-HN (N-terminally FLAG-tagged mumps virus hemagglutinin-neuraminidase) (mumps virus); assay: co-IP

B1: HA-BET1 (protein, UniProt O15155 1-118)
chain: MRRAGLGEGVPPGNYGNYGYANSGYSACEEENERLTESLRSKVTAIKSLSIEIGHEVKTQNKLLAEMDSQFDSTTGFLGKTMGKLKILSRGSQTKLLCYMMLFSLFVFFIIYWIIKLR
binding [1]: binds
binding [2]: no binding

B2: HA-USE1 (Unconventional SNARE in ER 1) (protein, UniProt Q9NZ43 1-259)
chain: MAASRLELNLVRLLSRCEAMAAEKRDPDEWRLEKYVGALEDMLQALKVHASKPASEVINEYSWKVDFLKGMLQAEKLTSSSEKALANQFLAPGRVPTTARERVPATKTVHLQSRARYTSEMRSELLGTDSAEPEMDVRKRTGVAGSQPVSEKQLAAELDLVLQRHQNLQEKLAEEMLGLARSLKTNTLAAQSVIKKDNQTLSHSLKMADQNLEKLKTESERLEQHTQKSVNWLLWAMLIIVCFIFISMILFIRIMPKLK
binding [1]: binds
binding [2]: no binding
